Values from PubChem BioAssay AID1159578 (Peter MacCallum Cancer Centre, 2015)
Purpose: 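siRNA pools altering how lymphatic endothelial cells close a scratch wound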 (primary screen). Cells: human lymphatic endothelial cells. Reagents: siRNA pool against human genes, 40 nM. Timing: 48 h after transfection. Measurement: 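High-content imaging of dye-stained cells in a scratch assay measures filled wound area and nuclei per well; duplicate means given as ratio to mock and robust z-score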. Scale: migration robust z-score: higher = faster migration into the scratch; migration relative to mock: higher = more scratch area covered than mock; nuclei per well: higher = more cells in the well. Hit rule: 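Migration changed when robust z exceeds 2 or falls below -2 and mean nuclei number is at least 3300; otherwise not called changed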. Meaning of the calls: active = migration changed; inactive = no migration change, or too few cells.
The deposit covers about 18,000 reagents; this is a part drawn at random. Of all reagents, about 1,030 (5.7%) are marked active. 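Inactive calls also include pools with fewer than 3300 nuclei, whose migration was not assessed.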 Raw values vary from plate to plate and are shown uncorrected. Reagent sequences are not shown.

target gene,migration robust z-score,migration class with cell-count check,migration relative to mock,"nuclei per well, duplicate mean",Call
NIM1K,0.42,migration z between -2 and 2; enough cells,0.88,7903,inactive
JAM3,0.52,migration z between -2 and 2; enough cells,1.01,6390,inactive
DDX10,0.23,migration z between -2 and 2; enough cells,0.94,6636,inactive
DOP1B,-0.4,migration z between -2 and 2; enough cells,0.78,5988,inactive
MIX23,1.25,migration z between -2 and 2; enough cells,1.21,5734,inactive
MEIOC,-1.02,migration z between -2 and 2; enough cells,0.62,5633,inactive
SMIM12,-0.56,migration z between -2 and 2; enough cells,0.74,6650,inactive
PLPPR4,0.64,migration z between -2 and 2; enough cells,0.93,5216,inactive
PIH1D1,-0.11,migration z between -2 and 2; enough cells,0.86,6072,inactive
PSAPL1,-0.77,migration z between -2 and 2; enough cells,0.68,6398,inactive
BEGAIN,2,migration z between -2 and 2; enough cells,1.4,5678,inactive
ZFYVE16,1.06,migration z between -2 and 2; enough cells,1.17,5274,inactive
WDR36,0.41,migration z between -2 and 2; enough cells,0.99,5684,inactive
CNTNAP1,-1.27,migration z between -2 and 2; enough cells,0.56,3751,inactive
ORAI1,-1.24,migration z between -2 and 2; enough cells,0.56,5552,inactive
KANK1,-0.71,migration z between -2 and 2; enough cells,0.7,4652,inactive
AGTR1,0.86,migration z between -2 and 2; enough cells,0.97,6662,inactive
UGT3A2,0.73,migration z between -2 and 2; enough cells,0.94,5233,inactive
TCL6,-0.41,migration z between -2 and 2; enough cells,0.78,6662,inactive
PRPF40B,-1.16,migration z between -2 and 2; enough cells,0.58,4351,inactive
GOLGA8A,1.66,migration z between -2 and 2; enough cells,1.31,6702,inactive
SLC35E4,-0.24,migration z between -2 and 2; enough cells,0.82,6951,inactive
IFI27,0.17,migration z between -2 and 2; enough cells,0.93,5403,inactive
CCBE1,-1.01,migration z between -2 and 2; enough cells,0.62,4890,inactive
MED11,-0.65,migration z between -2 and 2; enough cells,0.72,6038,inactive
CALCOCO1,-2.43,migration z below -2; enough cells,0.26,4990,active
ADAM18,-1.9,migration z between -2 and 2; enough cells,0.44,4382,inactive
TOB1,0.16,migration z between -2 and 2; enough cells,0.84,5028,inactive
MAGEB10,-0.14,migration z between -2 and 2; enough cells,0.86,5474,inactive
ZBED1,-0.22,migration z between -2 and 2; enough cells,0.83,6262,inactive
E4F1,-0.39,migration z between -2 and 2; enough cells,0.73,4626,inactive
GMNN,0.87,migration z between -2 and 2; enough cells,1.12,6468,inactive
CCDC92,-0.77,migration z between -2 and 2; enough cells,0.69,5924,inactive
OR4D10,1.53,migration z between -2 and 2; enough cells,1.28,6881,inactive
VTCN1,0.38,migration z between -2 and 2; enough cells,0.99,5444,inactive
CBR3,-0.34,migration z between -2 and 2; enough cells,0.74,5954,inactive
POFUT3,-2.09,under 3300 nuclei; migration not judged,0.34,2714,inactive
ECEL1,0.52,migration z between -2 and 2; enough cells,0.9,5400,inactive
GOLGA7B,-1.33,migration z between -2 and 2; enough cells,0.54,6019,inactive
